# Results deposited as PubChem BioAssay AID1259405 (NCATS, 2018).
# Purpose: 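Mouse-designed siRNAs used to find CHO productivity engineering targets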 (primary screen)
# System: Chinese hamster CHO-K1 ovary cells with stable secreted eGFP expression
# Reagent: single siRNA against mouse genes, 0.8 pmol siRNA per well (2 µl of 400 nM stock)
# Time to read-out: 3 days
# Detection: 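Per-well intracellular GFP measured by laser scanning cytometry, plus viability from ATP luminescence, each relative to plate median of non-targeting control wells, in %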
# Reading the numbers: GFP, % of control: higher = more GFP per well, higher productivity; viability (ATP), % of control: higher = more viable cells (more ATP)
# Call rule: 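a knock-down is called active if GFP reaches 120% or more of non-targeting control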
# The whole screen tested about 50,000 reagents; shown is a part drawn at random. About 4,000 of all reagents (8%) count as active. 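Mouse siRNA library applied to hamster cells; one well for each siRNA.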 No sequences are given here.
gene,PubChem SID,"GFP, % of control","viability (ATP), % of control",activity call
Wfikkn2,SID363572970,120,98.1,inactive
Wfikkn2,SID363577546,85.5,64.2,inactive
Wfikkn2,SID363581066,96.7,69,inactive
Or8u3,SID363562207,93.1,83.8,inactive
Or8u3,SID363567345,107,98.6,inactive
Or8u3,SID363584702,67.7,58.7,inactive
Lmod1,SID363541016,79.3,61.8,inactive
Lmod1,SID363555643,71.5,73.6,inactive
Lmod1,SID363565932,39,32.3,inactive
Lrrc15,SID363544338,131,94.5,active
Lrrc15,SID363550666,45,63.1,inactive
Lrrc15,SID363557215,74.4,67.9,inactive
Rnf123,SID363555053,97.1,96.9,inactive
Rnf123,SID363568500,78.4,57.4,inactive
Rnf123,SID363586559,71.2,64.1,inactive
Kiss1,SID363540231,61.7,72,inactive
Kiss1,SID363541983,49,65.8,inactive
Kiss1,SID363566899,138,80.4,active
Trim12a,SID363541657,96.8,46.5,inactive
Trim12a,SID363553249,65.2,69.8,inactive
Trim12a,SID363566573,66.1,73.1,inactive
Zpbp2,SID363556775,51,53.6,inactive
Zpbp2,SID363563679,68,59.8,inactive
Zpbp2,SID363587225,69.4,105,inactive
Washc3,SID363543740,82.2,74.8,inactive
Washc3,SID363551476,69.9,68.1,inactive
Washc3,SID363559081,78.5,75.5,inactive
Tfap2d,SID363573667,51.8,56,inactive
Tfap2d,SID363581411,69.8,69.6,inactive
Tfap2d,SID363583875,78.8,88.6,inactive
Zfp598,SID363556722,45.4,27.6,inactive
Zfp598,SID363563626,53.2,65,inactive
Zfp598,SID363587172,65,92,inactive
Rhox2a,SID363545953,128,114,active
Rhox2a,SID363549466,81.6,58.9,inactive
Rhox2a,SID363563272,145,59.1,active
Pde9a,SID363547433,93.1,52.3,inactive
Pde9a,SID363558202,91.6,89.8,inactive
Pde9a,SID363559960,64.4,78,inactive
Atp5me,SID363569030,113,83.5,inactive
Atp5me,SID363583462,57.2,49.8,inactive
Bckdhb,SID363575221,100,122,inactive
Bckdhb,SID363580853,107,60,inactive
Bckdhb,SID363582965,61.7,76.3,inactive
Mrps5,SID363553937,127,103,active
Mrps5,SID363561894,114,81.1,inactive
Mrps5,SID363565632,166,73.4,active
Cmtm5,SID363550155,93.3,86.8,inactive
Cmtm5,SID363564664,88.4,71,inactive
Cmtm5,SID363588209,120,131,active
1700024G13Rik,SID363543562,53,57.4,inactive
1700024G13Rik,SID363553055,111,61.3,inactive
1700024G13Rik,SID363558903,90.1,114,inactive
Polr3h,SID363545705,22.9,38.9,inactive
Polr3h,SID363549218,102,95.3,inactive
Polr3h,SID363563024,49.8,79.5,inactive
Ern2,SID363547457,79.3,58.6,inactive
Ern2,SID363558226,38.4,35.4,inactive
Ern2,SID363559984,87.1,81.7,inactive
Stbd1,SID363539482,64.5,62.7,inactive
Stbd1,SID363560783,99,55.1,inactive
Stbd1,SID363564873,112,94.5,inactive
Dhrs7c,SID363575090,73.8,58.3,inactive
Dhrs7c,SID363580722,92.1,61.5,inactive
Dhrs7c,SID363582834,77.7,78.1,inactive
Hoxd3,SID363569630,125,115,active
Hoxd3,SID363577374,136,116,active
Hoxd3,SID363578782,77.9,91.4,inactive
Glo1,SID363573161,71.5,80.4,inactive
Glo1,SID363577737,63.2,66.8,inactive
Glo1,SID363581257,78.5,63.9,inactive
Mx1,SID363541375,69.5,59.2,inactive
Mx1,SID363556002,44.9,33.3,inactive
Mx1,SID363566291,75.7,70.1,inactive
Tcf25,SID363539810,96.1,71.3,inactive
Tcf25,SID363561111,41.4,50.9,inactive
Tcf25,SID363565201,82.2,81.4,inactive
BC004004,SID363546634,86.5,36.3,inactive
BC004004,SID363548390,86.1,83.4,inactive
BC004004,SID363560568,47.4,41.6,inactive
Inava,SID363552214,96.5,83.2,inactive
Inava,SID363585350,90.9,83.7,inactive
Inava,SID363585701,61.5,83.6,inactive
Nlk,SID363571054,82.6,87.5,inactive

An excerpt taken from the entries so far, for reference:
gene,PubChem SID,"GFP, % of control","viability (ATP), % of control",activity call
Cmtm5,SID363564664,88.4,71,inactive
Cmtm5,SID363588209,120,131,active
1700024G13Rik,SID363543562,53,57.4,inactive
1700024G13Rik,SID363553055,111,61.3,inactive
1700024G13Rik,SID363558903,90.1,114,inactive
Polr3h,SID363545705,22.9,38.9,inactive
Polr3h,SID363549218,102,95.3,inactive
Polr3h,SID363563024,49.8,79.5,inactive
